US20180057565A1, “STABILIZED POLYPEPTIDE INSULIN RECEPTOR MODULATORS” (President and Fellows of Harvard College, priority 2012, published 2018)
For at least one compound, name, drawing or mass did not settle the structure. Bridge positions count the residues as written; N and C are the ends. Square brackets hold non-standard residues; d marks the D form. Peptide text beside a SMILES is read from it. R8 = C=CCCCCCC[C@@](C)(N)C(=O)O; S5 = C=CCCC[C@](C)(N)C(=O)O

Protein sequences, listed by entry. Tags and fused reporters are not part of them. Residues count along the entry.
UniProt P06213, 28-758 limits assumed: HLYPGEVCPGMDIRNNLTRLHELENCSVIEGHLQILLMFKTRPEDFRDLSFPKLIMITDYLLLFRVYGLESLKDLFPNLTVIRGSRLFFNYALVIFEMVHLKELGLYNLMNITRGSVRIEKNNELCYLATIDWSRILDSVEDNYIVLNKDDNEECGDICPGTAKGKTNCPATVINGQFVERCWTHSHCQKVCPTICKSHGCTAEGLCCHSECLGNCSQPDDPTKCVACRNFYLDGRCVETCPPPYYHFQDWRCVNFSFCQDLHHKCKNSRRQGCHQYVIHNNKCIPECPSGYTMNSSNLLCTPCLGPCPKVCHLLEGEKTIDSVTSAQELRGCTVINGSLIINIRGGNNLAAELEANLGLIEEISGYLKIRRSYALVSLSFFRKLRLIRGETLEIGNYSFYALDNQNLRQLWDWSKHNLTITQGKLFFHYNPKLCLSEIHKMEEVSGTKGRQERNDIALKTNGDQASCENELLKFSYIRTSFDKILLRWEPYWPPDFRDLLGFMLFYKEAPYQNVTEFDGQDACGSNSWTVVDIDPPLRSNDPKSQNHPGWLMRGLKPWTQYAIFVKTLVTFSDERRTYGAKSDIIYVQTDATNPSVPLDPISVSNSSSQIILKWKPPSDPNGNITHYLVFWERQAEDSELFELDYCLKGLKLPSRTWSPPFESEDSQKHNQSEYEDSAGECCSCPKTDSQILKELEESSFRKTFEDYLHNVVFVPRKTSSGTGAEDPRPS
UniProt P06213, 763-1382 partner limits assumed: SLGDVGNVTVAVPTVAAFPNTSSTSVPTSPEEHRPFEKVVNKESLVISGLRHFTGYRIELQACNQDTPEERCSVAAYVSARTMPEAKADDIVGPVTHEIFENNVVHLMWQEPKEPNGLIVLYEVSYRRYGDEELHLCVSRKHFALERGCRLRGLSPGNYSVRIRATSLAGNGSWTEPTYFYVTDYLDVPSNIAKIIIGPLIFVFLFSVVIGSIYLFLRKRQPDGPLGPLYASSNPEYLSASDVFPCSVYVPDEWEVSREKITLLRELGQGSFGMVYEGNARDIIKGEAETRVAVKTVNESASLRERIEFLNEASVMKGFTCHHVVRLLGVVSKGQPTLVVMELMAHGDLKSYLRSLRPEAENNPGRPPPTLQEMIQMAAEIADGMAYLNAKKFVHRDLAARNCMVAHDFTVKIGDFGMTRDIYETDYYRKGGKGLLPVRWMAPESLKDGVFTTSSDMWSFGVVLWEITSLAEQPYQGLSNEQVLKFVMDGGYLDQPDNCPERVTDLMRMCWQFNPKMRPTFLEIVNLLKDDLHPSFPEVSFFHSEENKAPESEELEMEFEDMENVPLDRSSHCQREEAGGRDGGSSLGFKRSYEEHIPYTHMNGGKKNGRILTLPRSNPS

Molecular target: T1, phosphor-IR Y1150/1151 (Homo sapiens, UniProt P06213)
T1 construct: expressed in transfected cells; host or cells: CHO-IR (CHO cells stably expressing IR, from the Morris White lab)
Assay: Dose-response ELISA of phospho-IR Y1150/1151 in CHO-IR cell lysates
Format: cell-based
Details: CHO-IR cells; 50 nM insulin; read-out: IC50, inhibition of insulin-induced autophosphorylation of IR

Question: How did the IC50 turn out when `CC(C)C[C@H](NC(=O)[C@H](CCC(N)=O)NC(=O)[C@H](CCCNC(=N)N)NC(=O)[C@]1(C)CCCC=CCCCCCC[C@@](C)(NC(=O)[C@H](CC(=O)O)NC(=O)[C@H](CC(C)C)NC(=O)[C@H](CO)NC(=O)CN)C(=O)N[C@@H](CO)C(=O)N[C@@H](Cc2ccccc2)C(=O)N[C@@H](Cc2ccc(O)cc2)C(=O)N[C@@H](CC(=O)O)C(=O)N[C@@H](Cc2c[nH]c3ccccc23)C(=O)N[C@@H](Cc2ccccc2)C(=O)N1)C(=O)NCC(N)=O` [SIRB-B5] (H-GSLD[R8]SFYDWF[S5]RQLG-NH2; staple 5-12; C-terminus assumed) was run?
Answer: 1800 nM
